Laboratory results from paper doi:10.1101/500082.
Results are given in words; binding and its absence hold for the method and conditions named. Binding calls can cover weak binding; strength is not graded here. Sequences can lack the tags named with a protein. For some assays here: Binding seen in cells or lysates may run through a third protein.

The chains behind the UniProt entries cited, without tags or fusion partners. Where a name states a change or a piece, a line headed by the entry shows the natural chain unless it says otherwise.
UniProt Q9GYJ9: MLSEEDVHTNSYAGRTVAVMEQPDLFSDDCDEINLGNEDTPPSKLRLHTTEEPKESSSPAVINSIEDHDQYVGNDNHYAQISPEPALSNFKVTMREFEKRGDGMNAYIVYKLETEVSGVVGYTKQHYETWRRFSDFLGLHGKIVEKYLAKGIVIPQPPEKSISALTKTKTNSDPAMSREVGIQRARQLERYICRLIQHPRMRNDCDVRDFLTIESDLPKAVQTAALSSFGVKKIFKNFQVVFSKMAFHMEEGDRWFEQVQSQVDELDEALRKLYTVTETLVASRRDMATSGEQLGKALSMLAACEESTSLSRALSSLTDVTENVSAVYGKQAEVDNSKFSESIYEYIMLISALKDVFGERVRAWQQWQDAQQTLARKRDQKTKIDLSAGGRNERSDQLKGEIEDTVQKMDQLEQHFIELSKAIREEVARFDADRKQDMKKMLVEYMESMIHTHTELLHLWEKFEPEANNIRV

Tests used:
[1] = target: T1, SPE-39-GST (C. elegans) (UniProt Q23288); experiment: pull-down
T1 sequence: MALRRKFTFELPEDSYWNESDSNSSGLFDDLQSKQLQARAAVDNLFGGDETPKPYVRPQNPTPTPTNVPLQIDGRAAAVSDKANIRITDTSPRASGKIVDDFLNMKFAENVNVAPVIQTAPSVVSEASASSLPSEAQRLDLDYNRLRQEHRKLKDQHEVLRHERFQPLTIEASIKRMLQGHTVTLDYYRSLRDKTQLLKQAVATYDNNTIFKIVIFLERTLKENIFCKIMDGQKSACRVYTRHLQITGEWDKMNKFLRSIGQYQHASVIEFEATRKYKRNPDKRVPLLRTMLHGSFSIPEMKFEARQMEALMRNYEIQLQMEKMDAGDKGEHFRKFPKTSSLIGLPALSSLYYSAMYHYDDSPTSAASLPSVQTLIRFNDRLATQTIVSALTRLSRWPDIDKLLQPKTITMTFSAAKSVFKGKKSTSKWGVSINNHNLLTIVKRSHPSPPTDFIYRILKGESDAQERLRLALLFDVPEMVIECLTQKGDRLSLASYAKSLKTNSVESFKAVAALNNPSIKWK

[2] = target: T2, SPE-39-FLAG (yeast two-hybrid vector) (C. elegans) (UniProt Q23288); experiment: pull-down
T2 sequence: T1 sequence

[3] = target: T2, SPE-39-FLAG (yeast two-hybrid vector) (C. elegans); experiment: two-hybrid

With His-VPS-45 (from UniProt H2KYN0) the binding [1] was “binds”.

With “SNX-1 (yeast two-hybrid vector) (from UniProt Q9GYJ9)” the binding [2] was “binds” and the binding [3] was “binds”.

“VPS-45 (yeast two-hybrid vector) (from UniProt H2KYN0)” was tested, and the binding [2] was “binds” and the binding [3] was “binds”.
